# Data as given in PubChem BioAssay AID1224830 (NIAID, 2016).
# Purpose: 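Regulators of TLR4 signalling towards TNF-alpha in macrophage-like cells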 (primary screen)
# Cell system: human THP-1 monocytic leukaemia cells, TNF dual-luciferase reporter clone, PMA-differentiated to macrophage-like cells
# Reagents: siRNA pool against human genes, 50 nM
# Timing: LPS for 4 h, given about 3 days after siRNA transfection
# Treatment: bacterial LPS (TLR4 ligand), 10 ng/ml
# Detection: 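Ratio of firefly to renilla light, scaled to the plate median and expressed as a robust z-score per replicate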
# Reading the numbers: TNF reporter robust z-score: higher = stronger TNF reporter response to LPS
# Rule for the call: 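a well is active when its z-score exceeds 2.8 or falls below -1.5; control wells carry no call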
# The whole screen tested about 18,000 reagents; this is a random part of them. About 2,900 of them (16%) count as active. 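Calls are made per well; low scores hint the gene aids the LPS response, high scores that it dampens it.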 Repeated entries: four replicate wells of each siRNA pool. Reagent sequences are not shown.
target gene,TNF reporter robust z-score,Call
CAND2,-0.73,inactive
CAND2,1.13,inactive
CAND2,1.2,inactive
CAND2,1.31,inactive
RPL37A,1.67,inactive
RPL37A,2.51,inactive
RPL37A,1.35,inactive
RPL37A,0.03,inactive
MRM2,1.63,inactive
MRM2,2.22,inactive
MRM2,1.25,inactive
MRM2,1.98,inactive
EEF1A1,-0.62,inactive
EEF1A1,0.55,inactive
EEF1A1,-0.41,inactive
EEF1A1,0.31,inactive
DLX3,1.33,inactive
DLX3,1.95,inactive
DLX3,1.93,inactive
DLX3,1.49,inactive
MAD2L1,0.59,inactive
MAD2L1,0.31,inactive
MAD2L1,0.13,inactive
MAD2L1,1.21,inactive
CREB1,-1.56,active
CREB1,-1.47,inactive
CREB1,-1.74,active
CREB1,-1.54,active
PLPP4,-0.35,inactive
PLPP4,0.15,inactive
PLPP4,-0.55,inactive
PLPP4,-0.24,inactive
KSR1,-0.34,inactive
KSR1,-0.24,inactive
KSR1,-0.17,inactive
KSR1,0.04,inactive
MAN1B1,7.07,active
MAN1B1,8.94,active
MAN1B1,10,active
MAN1B1,18,active
LINC01559,0.21,inactive
LINC01559,0.69,inactive
LINC01559,-0.43,inactive
LINC01559,1.13,inactive
UBE2V2,-1.29,inactive
UBE2V2,0.11,inactive
UBE2V2,-0.61,inactive
UBE2V2,-0.8,inactive
CIAO2A,-0.15,inactive
CIAO2A,-0.99,inactive
CIAO2A,-1.24,inactive
CIAO2A,-0.93,inactive
CIAO2A,3.37,active
CIAO2A,1.44,inactive
CIAO2A,2.47,inactive
CIAO2A,2.34,inactive
PEDS1,-0.76,inactive
PEDS1,-1.03,inactive
PEDS1,-0.57,inactive
PEDS1,-0.99,inactive
TBCC,0.14,inactive
TBCC,0.46,inactive
TBCC,0.32,inactive
TBCC,1.08,inactive
WFDC10B,-1.02,inactive
WFDC10B,-1.47,inactive
WFDC10B,-1.04,inactive
WFDC10B,-1.05,inactive
RAMP1,0.55,inactive
RAMP1,1.01,inactive
RAMP1,-0.1,inactive
RAMP1,-0.46,inactive
EZH2,0.13,inactive
EZH2,-0.48,inactive
EZH2,-0.68,inactive
EZH2,-0.46,inactive
NR2E1,1.51,inactive
NR2E1,0.34,inactive
NR2E1,1.22,inactive
NR2E1,0.14,inactive
SNX18,-0.86,inactive
SNX18,-0.8,inactive
SNX18,-0.56,inactive
SNX18,-0.95,inactive
RPIA,3.98,active
RPIA,1.6,inactive
RPIA,2.05,inactive
RPIA,4.04,active
VSIG10,-0.7,inactive
VSIG10,0.84,inactive
VSIG10,0.49,inactive
VSIG10,0.33,inactive
TRMT44,0.1,inactive
TRMT44,1.01,inactive
TRMT44,0.37,inactive
TRMT44,-0.38,inactive
OR5J2,-0.47,inactive
OR5J2,0.3,inactive
OR5J2,0.07,inactive
OR5J2,-0.52,inactive
GPATCH2L,,inactive
GPATCH2L,-0.24,inactive
GPATCH2L,-0.27,inactive
GPATCH2L,-0.51,inactive
NSUN5P2,-0.08,inactive
NSUN5P2,1.39,inactive
NSUN5P2,0.17,inactive
NSUN5P2,0.18,inactive
TLR2,-1.51,active
TLR2,-1.38,inactive
TLR2,-1.34,inactive
TLR2,-0.06,inactive
